# Results published in the supplement of paper PMC4604168 (melanoma cell lines).
# The list shows a part of the results. Repeats are few or missing, and single values can be far off.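 The apoptosis fraction was the count of cleaved-PARP antibody-stained nuclei relative to all DNA-stained nuclei, imaged in 1,536-well plates. Screening doses were set so most cells survived, and baseline and induced cleaved-PARP levels vary greatly across cell lines.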
# Test system: WM115
# Assay: cleaved PARP positive nuclei fraction relative to DMSO control; melanoma cells; higher = more apoptosis
# Details: library dose: low library concentration; 72 h
row,SMILES,cleaved PARP positive nuclei fraction [%]
1,"CO[C@H]1C[C@@H]2CC[C@@H](C)[C@@](O)(O2)C(=O)C(=O)N2CCCC[C@H]2C(=O)O[C@H]([C@H](C)C[C@@H]2CC[C@@H](OCCO)[C@H](OC)C2)CC(=O)[C@H](C)/C=C(\C)[C@@H](O)[C@@H](OC)C(=O)[C@H](C)C[C@H](C)/C=C/C=C/C=C/1C [everolimus] + Clc1ccc(Nc2nnc(Cc3ccncc3)c3ccccc23)cc1 [vatalanib] (first compound 0.02 µM, partner dose 2 µM)",125
2,"CO[C@H]1C[C@@H]2CC[C@@H](C)[C@@](O)(O2)C(=O)C(=O)N2CCCC[C@H]2C(=O)O[C@H]([C@H](C)C[C@@H]2CC[C@@H](OCCO)[C@H](OC)C2)CC(=O)[C@H](C)/C=C(\C)[C@@H](O)[C@@H](OC)C(=O)[C@H](C)C[C@H](C)/C=C/C=C/C=C/1C [everolimus] + O=C(O)c1ccc2c(c1)nc(Nc1cccc(Cl)c1)c1ccncc12 [CX4945] (first compound 0.02 µM, partner dose 0.4 µM)",121
3,"CO[C@H]1C[C@@H]2CC[C@@H](C)[C@@](O)(O2)C(=O)C(=O)N2CCCC[C@H]2C(=O)O[C@H]([C@H](C)C[C@@H]2CC[C@@H](OCCO)[C@H](OC)C2)CC(=O)[C@H](C)/C=C(\C)[C@@H](O)[C@@H](OC)C(=O)[C@H](C)C[C@H](C)/C=C/C=C/C=C/1C [everolimus] + CNC(=O)c1cc(Oc2ccc(NC(=O)Nc3ccc(Cl)c(C(F)(F)F)c3)cc2)ccn1 [sorafenib] (first compound 0.02 µM, partner dose 0.4 µM)",84
